This assay has as its target 3xFLAG-SRMS K258A (human) (UniProt Q9H3Y6). Description: affinity purification with mass spectrometry; anti-FLAG beads on lysates of HEK293 cells expressing Flag-tagged SRMS (50 mM Tris pH 7.4, 150 mM NaCl, 1 mM EDTA, 1% Triton X-100), 4 h at 4 C, eluted with FLAG peptide, SDS-PAGE, mass spectrometry ('substrate trapping').

By UniProt entry, the sequences of proteins in these tests, tags left out. Where a name states a change or a piece, a line headed by the entry shows the natural chain unless it says otherwise.
UniProt Q9H3Y6: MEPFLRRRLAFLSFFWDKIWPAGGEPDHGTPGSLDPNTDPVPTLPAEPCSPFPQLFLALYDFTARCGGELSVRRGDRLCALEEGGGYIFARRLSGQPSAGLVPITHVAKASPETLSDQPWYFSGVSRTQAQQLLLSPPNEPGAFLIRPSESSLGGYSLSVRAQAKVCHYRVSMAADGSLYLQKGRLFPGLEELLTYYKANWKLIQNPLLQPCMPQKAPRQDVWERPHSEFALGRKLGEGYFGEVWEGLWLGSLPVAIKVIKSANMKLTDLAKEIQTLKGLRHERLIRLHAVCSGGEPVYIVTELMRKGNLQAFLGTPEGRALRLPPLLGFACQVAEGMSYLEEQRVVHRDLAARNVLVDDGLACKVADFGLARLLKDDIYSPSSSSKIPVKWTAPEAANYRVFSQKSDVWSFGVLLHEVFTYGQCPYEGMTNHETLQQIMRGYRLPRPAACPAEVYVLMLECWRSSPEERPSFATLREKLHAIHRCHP

These are yes or no findings as the source states them, for the method shown. In cells and extracts the contact can be indirect. These calls come from enrichment with a bait or labelling near it, and not all partners need be listed.

B1: FK506-binding protein 51 (endogenous) (protein, UniProt Q13451 1-457)
chain: MTTDEGAKNNEESPTATVAEQGEDITSKKDRGVLKIVKRVGNGEETPMIGDKVYVHYKGKLSNGKKFDSSHDRNEPFVFSLGKGQVIKAWDIGVATMKKGEICHLLCKPEYAYGSAGSLPKIPSNATLFFEIELLDFKGEDLFEDGGIIRRTKRKGEGYSNPNEGATVEIHLEGRCGGRMFDCRDVAFTVGEGEDHDIPIGIDKALEKMQREEQCILYLGPRYGFGEAGKPKFGIEPNAELIYEVTLKSFEKAKESWEMDTKEKLEQAAIVKEKGTVYFKGGKYMQAVIQYGKIVSWLEMEYGLSEKESKASESFLLAAFLNLAMCYLKLREYTKAVECCDKALGLDSANEKGLYRRGEAQLLMNEFESAKGDFEKVLEVNPQNKAARLQISMCQKKAKEHNERDRRIYANMFKKFAEQDAKEEANKAMGKKTSEGVTNEKGTDSQAMEEEKPEGHV
In the case of B1, the binding entry is listed as “binds”.

For the origin of these results see article PMC8202955, “The nonreceptor tyrosine kinase SRMS inhibits autophagy and promotes tumor growth by phosphorylating the scaffolding protein FKBP51” (PLoS Biology, 2021).
